The values are deposited in ChEMBL (CHEMBL3988442, “University of Dundee, Small-Polar-MMV Screening Library” (2021)).

By UniProt entry, the sequences of proteins in these tests, tags left out.
UniProt E9BF75, entry or part of it: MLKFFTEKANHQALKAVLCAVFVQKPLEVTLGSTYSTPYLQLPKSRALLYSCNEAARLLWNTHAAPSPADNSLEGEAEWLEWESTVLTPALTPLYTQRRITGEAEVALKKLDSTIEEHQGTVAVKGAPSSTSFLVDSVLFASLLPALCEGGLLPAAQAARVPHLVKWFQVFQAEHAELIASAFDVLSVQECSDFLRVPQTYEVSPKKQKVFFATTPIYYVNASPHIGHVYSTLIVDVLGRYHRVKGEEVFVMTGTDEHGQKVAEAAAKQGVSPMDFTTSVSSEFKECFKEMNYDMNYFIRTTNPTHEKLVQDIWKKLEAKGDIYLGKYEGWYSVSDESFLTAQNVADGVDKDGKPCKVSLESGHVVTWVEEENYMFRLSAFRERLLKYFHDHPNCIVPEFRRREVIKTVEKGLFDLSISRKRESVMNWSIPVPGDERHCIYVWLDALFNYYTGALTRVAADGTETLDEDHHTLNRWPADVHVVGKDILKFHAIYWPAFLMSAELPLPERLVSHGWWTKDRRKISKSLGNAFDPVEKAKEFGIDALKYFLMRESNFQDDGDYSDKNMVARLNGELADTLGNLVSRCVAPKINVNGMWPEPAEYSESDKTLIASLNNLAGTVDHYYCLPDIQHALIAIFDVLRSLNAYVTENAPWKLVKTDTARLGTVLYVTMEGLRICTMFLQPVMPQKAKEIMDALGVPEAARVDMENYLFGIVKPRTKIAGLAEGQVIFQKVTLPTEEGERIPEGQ

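Methionyl-tRNA synthetase (putative), Leishmania donovani (UniProt E9BF75). Primary screen of methionyl-tRNA synthetase; the read-out is not stated. The test concentration is not given. The values are filed as inhibition. Of about 68,000 compounds tested this way, about 24 (0.035%) reached 50% or more in at least one test.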

All values are in %. How 0% and 100% were set is not recorded. Most values in the screen are low, and negative values occur. The compounds are a random part of those screened.

CC(C)C(=O)N1CCC2(CCN2CC2CC2)C1 (stereo not given) read 14.29%.
CS(=O)(=O)N1CCN(C(=O)c2cnn3c2OCCC3)CC1 read 13.52%.
CCC(C(=O)Nc1ccc2c(C)n[nH]c2c1)N1CCCC1=O (stereo not given) read 6.364%.
CC[C@@]1(O)CCN(C(=O)CCc2cnn(C)c2)C[C@H]1O read 7.94%.
CC(=O)N1CCC2(CC1)CN(C(=O)c1cccc3[nH]ccc13)CCO2 read 13.64%.
O=C(NCCNc1ncccn1)c1ccc(Cl)s1 read 20.57%.
c1cnc(N2CC3(CCN(CC4CCOC4)CC3)c3ccccc32)nc1 (stereo not given) read 13.77%.
CCCn1ncc(-c2ccnc(NC3CC(C)(C)NC(C)(C)C3)n2)c1C read -1.045%.
COc1cccc(S(=O)(=O)NC(=O)COC2CCCC2)c1 read 12.55%.
CN1CCCC1CCn1ccnc1-c1nc(-c2ccccc2)no1 (stereo not given) read 20.59%.
CCn1nc(C)c2nc(C(C)C)nc(N(C)Cc3ccco3)c21 read 20.96%.
C[C@@H]1CN(Cc2nnc(-c3cccnc3)o2)CC[C@]1(C)O read 4.348%.
Cc1ccc(OC2CCN(C(=O)C(C)Cn3cccn3)CC2)cc1 (stereo not given) read 14.98%.
O=C1CC(NCc2ccncc2)CN1CCc1cccc(Cl)c1 (stereo not given) read 9.816%.
CCC(NCc1ncc[nH]1)c1nc(C(F)(F)F)cs1 (stereo not given) read 12.89%.
COCCn1cc2c(n1)C(CNC(=O)c1cc(C)[nH]c1C)OCC2 (stereo not given) read 15.38%.
COCC(=O)N1CC[C@@H](N2CCN(C)CC2)[C@@H]1Cc1ccccc1 read -5.882%.
COc1ccc(C(=O)NS(=O)(=O)c2ccc(C#N)cc2C(F)(F)F)cc1 read 0.6536%.
CC[C@H]1CN2CC[C@H]1C[C@@H]2CNC(=O)Nc1ccc(Br)cc1 read 6.593%.
CCc1[nH]c2ccc(CNc3cncc(C(=O)N(C)C)n3)cc2c1C read 17.39%.
Cc1noc(C)c1CC(=O)NCC(C)N1CCOCC1 (stereo not given) read 12.1%.
N#Cc1ccnc(N2CCN(Cc3cccc(F)c3)CC2)c1 read 13.75%.
O=C(C1CC1)N1CC2(CCN(CC3CC3)CC2)c2cc(F)ccc21 read 1.667%.
COc1ccc(C(C)NC(=O)Nc2nnc(C)s2)cc1OC (stereo not given) read 2.135%.
CCSCCNC(=O)C(c1cccc(F)c1)N(C)C (stereo not given) read 10.51%.
CC(C)c1nc2c(n1C)CCN(CC(=O)Nc1cccnc1)C2 read 20.44%.
Cc1oc(-c2nc(C#N)c(NC(C)(C)C)o2)cc1S(=O)(=O)N1CCCC1 read 14.85%.
CN(CCc1ccccc1)Cc1nc(Cc2cccc(F)c2)no1 read 6.863%.
c1cnc(NCCCOC2CCOCC2)nc1 read 2.557%.
CCNC(=O)NC(=O)CNC1(c2noc(C)n2)CCCC1 read 6.197%.
Cc1nc(CN(CCS(C)(=O)=O)C(C)C)cs1 read 19.22%.
Cc1n[nH]c(C)c1CC(=O)N1CCC2(CC1)CN(C)CCN2C read 10.07%.
CCCn1cnc(NC(=O)NCC2CCS(=O)(=O)C2)n1 (stereo not given) read -1.579%.
CN(C)Cc1cnc(C2CCN(C(=O)c3cccc(F)c3)C2)[nH]1 (stereo not given) read 2.188%.
CCCn1nc(C)c(-c2cncn2CC2(N(C)C)CCC(C)CC2)c1C (stereo not given) read 11.75%.
CC(=O)N(C)CC(=O)Nc1cnc(-n2ccnc2)nc1 read 10.56%.
CC(C)COCC(C)NC(=O)NCc1cccc(-n2cncn2)c1 (stereo not given) read 11.39%.
CCCn1cc(NC(=O)Nc2ccc(F)c(C(=O)NC)c2)cn1 read 22.22%.
Cc1n[nH]c2nc(-c3cc(Br)ccc3O)cc(C(=O)O)c12 read 16.43%.
O=C(NCCN1CCNC1=O)c1cnc(-c2cccnc2)nc1 read 20.32%.
CCn1ccnc1CN1CCCN(C(=O)Cc2ccc(C)cc2)CC1 read 11.48%.
CC(C)N1CCC2(CC1)CC(CC(N)=O)c1ccc(F)cc12 (stereo not given) read 6.266%.
CC1CCN(CCNCc2cc(-c3ccccc3)cn3nnnc23)CC1 read 16.72%.
Cc1nc(CO[C@@H]2CN(Cc3cnn(C)c3)[C@@H]3COC[C@@H]32)cs1 read 20.5%.
CN1CC(=O)N(c2cccc(F)c2)CC12CCN(S(C)(=O)=O)C2 (stereo not given) read 15.15%.
Cc1cnc(C)c(-c2cc(O)c3c(c2)CN(c2ncccn2)CCO3)n1 read 4.02%.
Cc1cc(NC(=O)C(C)Nc2ccn(Cc3ccccn3)n2)on1 (stereo not given) read 10.53%.
c1ccc(N2CCN(Cc3cnc(C4CCCCO4)nc3)CC2)nc1 (stereo not given) read 12.03%.
Cc1csc(C(C)(C)NCC(=O)N2CCCC(C(N)=O)C2)n1 (stereo not given) read 3.562%.
COc1ccc(OC2CCN(C(=O)c3ccc(C(C)=O)s3)CC2)cc1 read 6.991%.
CCn1nc(C)c2nc(C(C)C)nc(N3CCCCC3)c21 read 15.75%.
Cn1c(N)nnc1SC1CCCN(c2ccccc2F)C1=O (stereo not given) read 7.018%.
CN(CC(=O)NCC(F)(F)F)C(=O)c1ccc(C(=O)OC(C)(C)C)cc1 read 8.309%.

For reference, 6 entries once more:

SMILES,inhibition
c1ccc(N2CCN(Cc3cnc(C4CCCCO4)nc3)CC2)nc1 (stereo not given),12.03
O=C(NCCN1CCNC1=O)c1cnc(-c2cccnc2)nc1,20.32
CCc1[nH]c2ccc(CNc3cncc(C(=O)N(C)C)n3)cc2c1C,17.39
CCn1nc(C)c2nc(C(C)C)nc(N(C)Cc3ccco3)c21,20.96
CC(=O)N1CCC2(CC1)CN(C(=O)c1cccc3[nH]ccc13)CCO2,13.64
Cc1nc(CN(CCS(C)(=O)=O)C(C)C)cs1,19.22